According to the supplement of paper PMC12823440, “Inhibitors supercharge kinase turnover through native proteolytic circuits” (Nature, 2025):
Counter-ions that a name gives are not always drawn. This is one part of the list. The calls rarely recur for the same compound in another form.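 Kinases were expressed as nanoluciferase fusions in K562 cells and luminescence was read every 4 h between 2 and 18 h as percent of control, DMSO set to 100% and a positive control to 0%. A time point counts as decreased when the signal drops significantly (2 sigma). The hit call is the authors' own, does not follow from the count of time points alone, and its rule is not shown.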

The chains behind the UniProt entries cited, without tags or fusion partners. Where a name states a change or a piece, a line headed by the entry shows the natural chain unless it says otherwise.
UniProt P07949, whole entry M918T, looked up: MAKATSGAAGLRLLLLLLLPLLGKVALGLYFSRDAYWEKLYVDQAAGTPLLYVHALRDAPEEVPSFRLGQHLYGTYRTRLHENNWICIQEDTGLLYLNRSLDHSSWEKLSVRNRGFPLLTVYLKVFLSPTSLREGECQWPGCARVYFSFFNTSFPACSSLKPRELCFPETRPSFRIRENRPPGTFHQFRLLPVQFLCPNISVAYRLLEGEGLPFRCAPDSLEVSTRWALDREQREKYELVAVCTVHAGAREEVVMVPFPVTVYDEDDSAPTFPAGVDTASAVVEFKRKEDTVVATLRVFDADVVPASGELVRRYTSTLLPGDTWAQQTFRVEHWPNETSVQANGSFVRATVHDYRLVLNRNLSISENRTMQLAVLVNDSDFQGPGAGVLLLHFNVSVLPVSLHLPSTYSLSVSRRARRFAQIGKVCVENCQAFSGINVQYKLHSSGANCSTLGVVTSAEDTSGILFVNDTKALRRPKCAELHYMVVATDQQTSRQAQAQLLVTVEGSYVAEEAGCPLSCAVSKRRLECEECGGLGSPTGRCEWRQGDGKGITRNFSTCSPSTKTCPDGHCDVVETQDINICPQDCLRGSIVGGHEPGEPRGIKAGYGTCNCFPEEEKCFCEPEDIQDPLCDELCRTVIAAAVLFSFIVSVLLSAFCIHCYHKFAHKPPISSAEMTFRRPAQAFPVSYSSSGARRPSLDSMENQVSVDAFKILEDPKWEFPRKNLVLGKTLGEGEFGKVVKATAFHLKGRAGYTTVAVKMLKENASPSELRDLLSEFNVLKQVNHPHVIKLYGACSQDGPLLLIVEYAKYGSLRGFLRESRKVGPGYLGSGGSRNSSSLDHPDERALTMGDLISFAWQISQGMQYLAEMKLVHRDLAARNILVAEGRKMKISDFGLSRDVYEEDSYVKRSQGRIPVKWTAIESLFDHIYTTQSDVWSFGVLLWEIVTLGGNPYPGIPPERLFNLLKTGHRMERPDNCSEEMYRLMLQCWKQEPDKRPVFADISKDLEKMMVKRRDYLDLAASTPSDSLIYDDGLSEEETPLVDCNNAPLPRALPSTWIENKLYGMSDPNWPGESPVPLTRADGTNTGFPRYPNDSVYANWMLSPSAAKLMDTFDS
UniProt Q9BRS2: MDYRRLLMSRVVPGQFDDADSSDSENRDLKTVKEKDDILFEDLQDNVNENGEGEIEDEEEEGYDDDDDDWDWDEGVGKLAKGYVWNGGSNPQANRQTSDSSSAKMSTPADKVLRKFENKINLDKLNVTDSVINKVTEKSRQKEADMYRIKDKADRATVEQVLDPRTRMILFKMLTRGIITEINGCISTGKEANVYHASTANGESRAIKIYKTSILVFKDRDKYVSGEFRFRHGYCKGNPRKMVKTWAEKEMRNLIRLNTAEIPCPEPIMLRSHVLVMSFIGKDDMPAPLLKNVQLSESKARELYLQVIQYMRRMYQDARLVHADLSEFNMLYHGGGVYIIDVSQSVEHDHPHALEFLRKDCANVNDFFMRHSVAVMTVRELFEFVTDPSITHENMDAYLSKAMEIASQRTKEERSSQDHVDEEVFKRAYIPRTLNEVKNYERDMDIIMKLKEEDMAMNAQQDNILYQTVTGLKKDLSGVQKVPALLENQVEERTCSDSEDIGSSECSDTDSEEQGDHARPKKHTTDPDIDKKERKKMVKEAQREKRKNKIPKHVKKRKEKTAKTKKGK

What follows are compounds tested against RET_M918T (clone: RET_mut) (UniProt P07949) (assay: number of time points (of 5) at which kinase-Nluc abundance scored as decreased, DMSO-normalised (count); higher = more persistent destabilization). Conditions: K562; 2-18 h.

Row | SMILES | number of time points
1 | O=C1C=CC[C@@H]2[C@H]3CCCN4CCC[C@@H](CN12)[C@@H]34 [Sophocarpine] (10 µM) | 0
2 | C=CC(=O)N[C@H]1C=C(C)c2c(-c3cnc4ccccc4c3)c3c(N)ncnc3n2C1 (10 µM) | 0
3 | Cn1cc(C2=C(c3cn(C4CCN(Cc5ccccn5)CC4)c4ccccc34)C(=O)NC2=O)c2ccccc21 [Enzastaurin] (10 µM) | 0
4 | CCN1CCN(C(=O)Cc2ccc(Nc3ncc(F)c(Nc4ccc(C(=O)Nc5ccccc5Cl)cc4)n3)cc2)CC1 (2.5 µM) | 0
5 | C[C@H]1CC[C@]2(NC1)O[C@H]1C[C@H]3[C@@H]4CC[C@H]5C[C@@H](O)CC[C@]5(C)[C@H]4CC[C@]3(C)[C@H]1[C@@H]2C [Tomatidine (hydrochloride)] (10 µM) | 0
6 | O=[N+]([O-])/C=C/c1ccc2c(c1)OCO2 (2.5 µM) | 0
7 | NCCc1cn(S(=O)(=O)c2c(Cl)nc3sccn23)c2ccccc12 (10 µM) | 0
8 | COc1ccc(N(C(=O)Oc2c(C)cccc2C)c2ccnc(Nc3ccc(N4CCN(C)CC4)cc3)n2)c(OC)c1 (2.5 µM) | 0
9 | Cc1ccccc1-n1c(Cn2cnc3c(N)ncnc32)nc2cccc(C)c2c1=O (10 µM) | 0
10 | Cc1[nH]ncc1-c1cc2nc([C@H]3CC4CCN3CC4)[nH]c(=O)c2s1 [(R)-Simurosertib] (10 µM) | 0
11 | CC1C(=O)OC2C(O)C34C5OC(=O)C3(OC3OC(=O)C(O)C34C(C(C)(C)C)C5O)C12O (centres undefined) [Ginkgolide C] (10 µM) | 0
12 | O=C(/C=C/c1ccccc1)OC[C@H]1O[C@@H](O[C@@H]2OC=C[C@H]3[C@H](O)[C@@H]4O[C@]4(CO)[C@@H]23)[C@H](O)[C@@H](O)[C@@H]1O [Picroside I] (10 µM) | 0
13 | CC1=C[C@]23C(=O)[C@@H](C=C(CO)[C@@H](O)[C@]2(O)[C@H]1O)[C@H]1[C@@H](C[C@H]3C)C1(C)C [Ingenol] (10 µM) | 0
14 | O=Cc1cn(Cc2ccc(Cl)cc2)c2ccccc12 [Oncrasin-1] (10 µM) | 0
15 | C[C@@H]1CC[C@H]2[C@@H](C)C(=O)O[C@@H]3O[C@@]4(C)CC[C@@H]1[C@]32OO4 [Artemisinin] (10 µM) | 0
16 | C[C@H](Nc1ncnc2[nH]cnc12)c1nc2ccc(F)cc2c(=O)n1-c1ccccc1 [Acalisib] (10 µM) | 0
17 | O=C1c2ccccc2C(=O)c2c1cccc2-c1cnn(C2CCNCC2)c1 [PDK4-IN-1 (hydrochloride)] (10 µM) | 0
18 | Cc1ccccc1-n1c(Cn2ncc3c(N)ncnc32)nc2cccc(C)c2c1=O (10 µM) | 0
19 | Nc1ncnc2c1ncn2[C@@H]1O[C@@H]2COP(O)(=S)O[C@H]2[C@H]1O (some centres undefined) [Sp-cAMPS (sodium salt)] (10 µM) | 0
20 | CN(C)C(=O)c1ccc(Cn2c(C(=O)O)cc3c(Br)cc(Sc4ccc(Cl)c(Cl)c4)cc32)cc1 [Rheb inhibitor NR1] (10 µM) | 0
21 | C/C=C(/C)C(=O)O[C@H]1[C@@H]2[C@H](C)C(=O)O[C@@H]2C[C@@H](C)[C@@H]2C=CC(=O)[C@]21C [Brevilin A] (2.5 µM) | 0

What follows are compounds tested against RIOK1 (UniProt Q9BRS2) in the same assay as above. Conditions: K562; 2-18 h.

Row | SMILES | number of time points
22 | C[C@H]1CC[C@]2(NC1)O[C@H]1C[C@H]3[C@@H]4CC[C@H]5C[C@@H](O[C@@H]6O[C@H](CO)[C@H](O[C@@H]7O[C@H](CO)[C@@H](O)[C@H](O[C@@H]8OC[C@@H](O)[C@H](O)[C@H]8O)[C@H]7O[C@@H]7O[C@H](CO)[C@@H](O)[C@H](O)[C@H]7O)[C@H](O)[C@H]6O)CC[C@]5(C)[C@H]4CC[C@]3(C)[C@H]1[C@@H]2C [Tomatine] (2.5 µM) | 0
23 | CCCCNc1nc(N)c2[nH]c(=O)n(Cc3ccc(C)nc3)c2n1 (10 µM) | 0
24 | C[C@H](CCC(=O)O)C[C@H](C)C[C@H](C)C(=O)/C=C(\O)[C@H](C)C[C@H](C)C/C=C/[C@@H](C)[C@@H](O)[C@@H](C)[C@@H](O)C[C@@H]1CC[C@@](C)([C@H]2CC[C@@](C)([C@@H](C)O)O2)O1 [Ionomycin (calcium)] (2.5 µM) | 5
25 | CCOC(=O)c1c(/C(C#N)=C\N)c2ccc(Cl)c(Cl)c2n1C (10 µM) | 0
26 | CC(=O)OC(C)(C)/C=C/C(=O)[C@](C)(O)[C@H]1[C@H](O)C[C@@]2(C)[C@@H]3CC=C4[C@@H](C=C(O)C(=O)C4(C)C)[C@]3(C)C(=O)C[C@]12C [Cucurbitacin E] (2.5 µM) | 2
27 | O=C1C=CC[C@@H]2[C@H]3CCCN4CCC[C@@H](CN12)[C@@H]34 [Sophocarpine (monohydrate)] (2.5 µM) | 0
28 | C=CC(=O)Nc1ccc2[nH]c(=O)n(C3CCN(Cc4ccc(-c5nc6cc[nH]c(=O)c6cc5-c5ccccc5)cc4)CC3)c2c1 [Borussertib] (10 µM) | 0
29 | O=C1C=CC[C@@H]2[C@H]3CCCN4CCC[C@@H](CN12)[C@@H]34 [Sophocarpine] (10 µM) | 0
30 | C=CC(=O)N[C@H]1C=C(C)c2c(-c3cnc4ccccc4c3)c3c(N)ncnc3n2C1 (10 µM) | 0
31 | Cn1cc(C2=C(c3cn(C4CCN(Cc5ccccn5)CC4)c4ccccc34)C(=O)NC2=O)c2ccccc21 [Enzastaurin] (10 µM) | 0
32 | CCN1CCN(C(=O)Cc2ccc(Nc3ncc(F)c(Nc4ccc(C(=O)Nc5ccccc5Cl)cc4)n3)cc2)CC1 (2.5 µM) | 0
33 | C[C@H]1CC[C@]2(NC1)O[C@H]1C[C@H]3[C@@H]4CC[C@H]5C[C@@H](O)CC[C@]5(C)[C@H]4CC[C@]3(C)[C@H]1[C@@H]2C [Tomatidine (hydrochloride)] (10 µM) | 0
34 | O=[N+]([O-])/C=C/c1ccc2c(c1)OCO2 (2.5 µM) | 0
35 | NCCc1cn(S(=O)(=O)c2c(Cl)nc3sccn23)c2ccccc12 (10 µM) | 0
36 | COc1ccc(N(C(=O)Oc2c(C)cccc2C)c2ccnc(Nc3ccc(N4CCN(C)CC4)cc3)n2)c(OC)c1 (2.5 µM) | 0
37 | Cc1ccccc1-n1c(Cn2cnc3c(N)ncnc32)nc2cccc(C)c2c1=O (10 µM) | 0
38 | Cc1[nH]ncc1-c1cc2nc([C@H]3CC4CCN3CC4)[nH]c(=O)c2s1 [(R)-Simurosertib] (10 µM) | 0
39 | CC1C(=O)OC2C(O)C34C5OC(=O)C3(OC3OC(=O)C(O)C34C(C(C)(C)C)C5O)C12O (centres undefined) [Ginkgolide C] (10 µM) | 0
40 | O=C(/C=C/c1ccccc1)OC[C@H]1O[C@@H](O[C@@H]2OC=C[C@H]3[C@H](O)[C@@H]4O[C@]4(CO)[C@@H]23)[C@H](O)[C@@H](O)[C@@H]1O [Picroside I] (10 µM) | 0
41 | CC1=C[C@]23C(=O)[C@@H](C=C(CO)[C@@H](O)[C@]2(O)[C@H]1O)[C@H]1[C@@H](C[C@H]3C)C1(C)C [Ingenol] (10 µM) | 0
42 | O=Cc1cn(Cc2ccc(Cl)cc2)c2ccccc12 [Oncrasin-1] (10 µM) | 0
43 | C[C@@H]1CC[C@H]2[C@@H](C)C(=O)O[C@@H]3O[C@@]4(C)CC[C@@H]1[C@]32OO4 [Artemisinin] (10 µM) | 0
44 | C[C@H](Nc1ncnc2[nH]cnc12)c1nc2ccc(F)cc2c(=O)n1-c1ccccc1 [Acalisib] (10 µM) | 0
45 | O=C1c2ccccc2C(=O)c2c1cccc2-c1cnn(C2CCNCC2)c1 [PDK4-IN-1 (hydrochloride)] (10 µM) | 0
46 | Cc1ccccc1-n1c(Cn2ncc3c(N)ncnc32)nc2cccc(C)c2c1=O (10 µM) | 0
47 | Nc1ncnc2c1ncn2[C@@H]1O[C@@H]2COP(O)(=S)O[C@H]2[C@H]1O (some centres undefined) [Sp-cAMPS (sodium salt)] (10 µM) | 0
48 | CN(C)C(=O)c1ccc(Cn2c(C(=O)O)cc3c(Br)cc(Sc4ccc(Cl)c(Cl)c4)cc32)cc1 [Rheb inhibitor NR1] (10 µM) | 0
49 | C/C=C(/C)C(=O)O[C@H]1[C@@H]2[C@H](C)C(=O)O[C@@H]2C[C@@H](C)[C@@H]2C=CC(=O)[C@]21C [Brevilin A] (2.5 µM) | 0
